Source: the supplement of paper PMC5407854, “Inhibitor of ppGalNAc-T3-mediated O-glycosylation blocks cancer cell invasiveness and lowers FGF23 levels” (eLife, 2017)
This is one part of the list. Most values lie at the level of the controls, where differences are scatter.

tested on: ppGalNAc-T3 sensor; test: T3 sensor activation Q score (MG/GFP ratio z-score vs DMSO controls) (SD units); higher = more sensor activation (inhibition of ppGalNAc-T3 glycosylation); conditions: HEK293 sensor cells; 10 µM; 6 h
Protocol: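 Cells were treated with compound at 10 uM for 6 h, then MG/GFP ratio was read by flow cytometry (10,000 cells per well, duplicate wells). Q = (R - R_neg)/SD_neg relative to DMSO vehicle controls; the signal rises when the glycosyltransferase is inhibited.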

Compound	T3 sensor activation Q score
CN(C)c1ccc(/C=C/CN2CCN(c3ccccc3F)CC2)cc1	0.2
COc1cc(N)c(Cl)cc1NC(=O)c1ccccc1	-0.74
Cc1ccc(C)c(CN2CCC(O)CC2)c1	0.19
COc1cc2c(cc1OC)CN(Cc1ccc(N(C)C)cc1)CC2	0.22
CC1CC(Nc2ccccc2)c2ccccc2N1C(=O)c1cccs1 (stereo not given)	-1.34
COc1ccc(C2NC(=O)N(C)C(C)=C2[N+](=O)[O-])cc1 (stereo not given)	0.23
CN(C)CCN(C)Cc1ccccc1	0.525
Cc1ccc(N2C(=O)CC(N3CCN(c4ccc(F)cc4)CC3)C2=O)c(C)c1 (stereo not given)	-0.295
O=C(Nc1ccc(-c2ccccc2)cc1)c1ccco1	-1.43
CC(=O)Nc1nonc1-c1ccccc1	0.085
O=C(N1CCCC1)N1c2ccccc2Sc2ccccc21	0.01
CCCN(CCO)Cc1cccc(Cl)c1	0.095
COc1ccc(-c2cn[nH]c2N)cc1OC	0.5
O=C(O)CNC(=O)c1ccc(Cl)cc1	-0.37
Cc1cccc(OCC(=O)Nc2cc(Cl)ccc2C)c1	1
CN1CCN(C(=O)Nc2ccccc2)CC1	0.425
CCc1ccccc1NC(=O)C(C)N1C(=O)c2ccccc2C1=O (stereo not given)	0.145
Cc1ccc(S(=O)(=O)Nc2c(C)cc(O)c(Br)c2C)cc1	-0.525
CCOc1ccc(Cl)cc1S(=O)(=O)N1CCCCC1	0.635
COc1ccc2[nH]c3c(c2c1)CCNC3=O	0.7

As a short view, part of the list above.
Compound	T3 sensor activation Q score
COc1ccc(-c2cn[nH]c2N)cc1OC	0.5
O=C(O)CNC(=O)c1ccc(Cl)cc1	-0.37

Next results follow.

Compound	T3 sensor activation Q score
COc1ccc2c(Cl)c(C(=O)N3CCCCC3)sc2c1	0.455
CCOc1ccc(CN2CCN(c3ccccn3)CC2)cc1	0.515
O=C1CC(=O)N(c2cccc(Cl)c2)N1	0.48
O=C(O)c1cc(C2CC2)nc2ccccc12	-0.875
CC(=O)C1=C(O)C(=O)N(c2ccccn2)C1c1ccccc1F (stereo not given)	0.36
COc1ccc(Cl)cc1NC(=O)c1cccc(C)c1	-0.04
CCOc1ccccc1CN1CCN(Cc2ccc3c(c2)OCO3)CC1	0.41
O=C(COc1ccc(Cl)cc1Cl)N1CCCC1	1.42
CCC(C(=O)Nc1cccc(C)c1C)c1ccccc1 (stereo not given)	-0.985
Cc1cccc(CN(C)C2CCN(C)CC2)c1	0.325
COC(=O)Nc1nc2ccc(C(=O)c3ccccc3)cc2[nH]1	0.87
COc1cccc(Nc2nc(-c3ccccc3)cs2)c1	-0.65
NC(=O)c1ccc(C(N)=O)cc1	2.05
COc1ccc(CCNC(=O)C2CCCCC2)cc1OC	0.19
C=CCOc1ccccc1CN1CCCCC1	0.38
O=C(COc1ccccc1O)NO	-0.005
O=C(Cn1ccnc1)c1ccc(Cl)cc1Cl	-1.13
O=S(=O)(Nc1ccccc1Cl)c1ccc(F)cc1	0.055
COc1cc(C(=O)N2CCN(C(=O)c3ccco3)CC2)cc(OC)c1OC	-0.67
O=C(O)c1ccc2c(c1)C(=O)N(CCO)C2=O	-0.525
